Laboratory results as given in paper doi:10.1101/139907.
Where two headings read alike, the source gives them in different places. These are yes or no findings as the source states them, for the method shown. For some of these results: In cells and extracts the contact can be indirect. Some binding calls cover weakened binding; strength is not graded here. For some of these results: Tags and fused reporters may be left off the sequences shown.

Protein sequences, listed by entry. Tags and fused reporters are not part of them. Lines headed by an entry give the natural chain unless they say otherwise; changes in a name come on top.
UniProt Q96EB6: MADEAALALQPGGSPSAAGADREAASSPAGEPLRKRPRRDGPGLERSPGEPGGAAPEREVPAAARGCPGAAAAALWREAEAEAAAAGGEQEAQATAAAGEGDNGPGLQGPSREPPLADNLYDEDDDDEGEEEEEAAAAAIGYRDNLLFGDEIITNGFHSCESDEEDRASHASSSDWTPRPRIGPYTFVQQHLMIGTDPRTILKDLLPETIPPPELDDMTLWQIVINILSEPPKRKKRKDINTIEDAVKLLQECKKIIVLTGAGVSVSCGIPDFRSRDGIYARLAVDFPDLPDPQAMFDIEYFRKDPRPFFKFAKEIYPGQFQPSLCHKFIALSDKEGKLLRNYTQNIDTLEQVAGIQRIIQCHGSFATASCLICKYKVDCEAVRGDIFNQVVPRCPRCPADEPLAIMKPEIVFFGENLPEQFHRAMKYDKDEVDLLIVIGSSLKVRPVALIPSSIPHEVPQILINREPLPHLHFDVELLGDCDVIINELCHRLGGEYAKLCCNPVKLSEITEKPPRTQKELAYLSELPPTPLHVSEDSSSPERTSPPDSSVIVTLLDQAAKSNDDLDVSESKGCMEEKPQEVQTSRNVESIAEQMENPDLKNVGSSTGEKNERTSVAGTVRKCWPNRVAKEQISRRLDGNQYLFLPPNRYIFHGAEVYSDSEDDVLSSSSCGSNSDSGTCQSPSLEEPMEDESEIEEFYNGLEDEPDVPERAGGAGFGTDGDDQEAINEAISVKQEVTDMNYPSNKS
UniProt Q8N6T7: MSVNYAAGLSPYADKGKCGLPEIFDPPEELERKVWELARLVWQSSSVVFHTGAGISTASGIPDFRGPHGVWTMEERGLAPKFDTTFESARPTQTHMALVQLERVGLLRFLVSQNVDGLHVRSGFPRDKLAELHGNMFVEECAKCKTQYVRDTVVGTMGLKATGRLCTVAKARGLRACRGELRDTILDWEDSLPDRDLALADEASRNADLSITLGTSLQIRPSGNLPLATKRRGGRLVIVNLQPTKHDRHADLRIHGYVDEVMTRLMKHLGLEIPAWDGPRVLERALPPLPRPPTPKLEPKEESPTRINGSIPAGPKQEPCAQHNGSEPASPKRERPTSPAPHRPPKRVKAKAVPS
UniProt Q9NRC8: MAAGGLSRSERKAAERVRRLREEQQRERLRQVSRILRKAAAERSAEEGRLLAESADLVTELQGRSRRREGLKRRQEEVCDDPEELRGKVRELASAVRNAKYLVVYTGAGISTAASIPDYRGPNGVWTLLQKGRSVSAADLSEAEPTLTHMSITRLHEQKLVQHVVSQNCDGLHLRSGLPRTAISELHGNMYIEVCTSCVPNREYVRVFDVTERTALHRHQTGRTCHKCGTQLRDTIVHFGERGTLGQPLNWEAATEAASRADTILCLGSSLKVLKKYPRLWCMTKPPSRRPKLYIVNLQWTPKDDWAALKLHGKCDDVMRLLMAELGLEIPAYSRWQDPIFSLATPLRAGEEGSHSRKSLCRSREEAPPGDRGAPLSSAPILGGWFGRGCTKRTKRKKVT
UniProt P15559: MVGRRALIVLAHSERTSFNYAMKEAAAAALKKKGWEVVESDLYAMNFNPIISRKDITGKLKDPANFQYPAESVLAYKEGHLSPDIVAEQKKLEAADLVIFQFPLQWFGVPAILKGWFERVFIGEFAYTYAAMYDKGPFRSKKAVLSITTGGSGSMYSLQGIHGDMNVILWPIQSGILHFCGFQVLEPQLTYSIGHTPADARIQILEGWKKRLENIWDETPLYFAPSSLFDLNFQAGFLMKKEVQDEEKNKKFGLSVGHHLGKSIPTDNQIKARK

Experiments:
flag-SIRT1 H363Y = flag-SIRT1 H363Y (UniProt Q96EB6); test: co-IP
flag-SIRT1 [1] = biological target: flag-SIRT1 (UniProt Q96EB6); test: co-IP
flag-SIRT6 = flag-SIRT6 (UniProt Q8N6T7); test: co-IP
flag-SIRT7 = flag-SIRT7 (UniProt Q9NRC8); test: co-IP
flag-SIRT2 = biological target: T1, flag-SIRT2 (UniProt Q8IXJ6); test: co-IP
T1 sequence: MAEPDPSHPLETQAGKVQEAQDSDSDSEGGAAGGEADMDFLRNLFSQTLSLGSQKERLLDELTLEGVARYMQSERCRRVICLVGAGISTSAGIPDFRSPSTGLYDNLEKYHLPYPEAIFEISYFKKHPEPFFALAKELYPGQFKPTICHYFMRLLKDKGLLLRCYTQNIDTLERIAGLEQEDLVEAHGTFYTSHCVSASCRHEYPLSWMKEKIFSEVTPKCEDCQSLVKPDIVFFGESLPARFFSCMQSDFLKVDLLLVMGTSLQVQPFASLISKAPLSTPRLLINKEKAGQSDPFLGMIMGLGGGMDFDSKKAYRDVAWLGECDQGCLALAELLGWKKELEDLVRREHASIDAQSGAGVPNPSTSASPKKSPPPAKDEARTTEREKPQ

flag-SIRT1 [2] = biological target: flag-SIRT1 (UniProt Q96EB6); test: co-IP; remark: listed apart in the source
His-SIRT1 = His-SIRT1 (UniProt Q96EB6); test: pull-down

Row | binding (flag-SIRT1 H363Y) | binding (flag-SIRT1 [1]) | binding (flag-SIRT6) | binding (flag-SIRT7) | binding (flag-SIRT2) | binding (flag-SIRT1 [2]) | Substance | binding (His-SIRT1)
1 | no binding | binds | binds weakly | binds weakly | binds weakly | binds | NQO1 (NAD(P)H Dehydrogenase Quinone 1) (from UniProt P15559 1-274) (enzyme) | 
2 |  |  |  |  |  |  | NQO1, bacterially expressed and purified (from UniProt P15559 1-274) (enzyme) | binds
